Reference: publication PMC4795683
No constants are given. Whether binding was seen depends on the method and setting. Binding seen in cells or lysates may run through a third protein. Some entries that bind do so weakly or less than the wild type. For part of these data: Tags and fused reporters may be left off the sequences shown.

How the values were obtained:
Cuf2-TAP (S. pombe) = biological target: T1, Cuf2-TAP (S. pombe) (UniProt O94588); assay: co-IP; TAP pull-down: whole-cell extracts (10 mg protein) of vegetative S. pombe cells, Mei4-GFP induced 18 h without thiamine, mixed with IgG Sepharose 6 Fast-Flow beads 2 h at 4°C; lysis buffer 10 mM Tris-HCl pH 7.9, 0.1% Triton X-100, 0.5 mM EDTA, 20% glycerol, 100 mM NaCl; bound proteins blotted with anti-GFP, anti-IgG and anti-α-tubulin
T1 sequence: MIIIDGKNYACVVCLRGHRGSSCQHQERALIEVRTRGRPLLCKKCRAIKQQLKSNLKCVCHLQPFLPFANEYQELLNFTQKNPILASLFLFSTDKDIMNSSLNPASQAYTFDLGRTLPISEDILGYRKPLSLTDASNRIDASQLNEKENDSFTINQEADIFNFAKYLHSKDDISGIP

Cuf2-VN (S. pombe) = biological target: T2, Cuf2-VN (S. pombe) (UniProt O94588); assay: split reporter; BiFC with Venus fragments VN and VC in living vegetative S. pombe cells, 18 h in thiamine-free EMM; fluorescence microscopy
T2 sequence: T1 sequence

Mei4-VC (S. pombe) = biological target: T3, Mei4-VC (S. pombe) (UniProt O13606); assay: as above
T3 sequence: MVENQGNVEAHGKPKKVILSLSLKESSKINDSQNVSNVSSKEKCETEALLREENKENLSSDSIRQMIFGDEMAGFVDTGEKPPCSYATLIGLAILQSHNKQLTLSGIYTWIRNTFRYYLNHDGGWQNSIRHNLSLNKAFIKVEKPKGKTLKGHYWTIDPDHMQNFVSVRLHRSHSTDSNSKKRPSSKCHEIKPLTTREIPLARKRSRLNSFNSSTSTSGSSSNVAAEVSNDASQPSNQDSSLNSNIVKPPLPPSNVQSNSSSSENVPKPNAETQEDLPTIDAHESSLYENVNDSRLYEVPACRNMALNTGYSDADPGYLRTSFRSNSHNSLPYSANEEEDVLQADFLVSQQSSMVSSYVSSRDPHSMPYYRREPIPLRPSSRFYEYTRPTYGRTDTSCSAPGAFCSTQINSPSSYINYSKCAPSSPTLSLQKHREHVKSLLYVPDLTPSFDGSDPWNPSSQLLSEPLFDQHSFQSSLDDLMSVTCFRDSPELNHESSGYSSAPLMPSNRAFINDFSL

B1: Mei4-GFP (protein, UniProt O13606 1-517)
chain: T3 sequence
In the case of B1, the binding (Cuf2-TAP (S. pombe)) is reported as “binds”.

B2: Mei4-VC (protein, UniProt O13606 1-517)
chain: T3 sequence
In the case of B2, the binding (Cuf2-VN (S. pombe)) is reported as “binds”.

B3: VN-Fep1 (protein, UniProt Q10134 1-564)
chain: MAAKPAPFGQSCSNCHKTTTSLWRRGPDNSLLCNACGLYQKHRKHARPVKSEDLKDISPLIQQVCKNGTCAGDGFCNGTGGSASCTGCPALNNRIRSLNASKSQSGRKSLSPNPSSVPSSTETKASPTPLESKPQIVSDTTTETSNGTSRRRSSHNQHEDSSPPHEPSVTFCQNCATTNTPLWRRDESGNPICNACGLYYKIHGVHRPVTMKKAIIKRRKRLVFNGNANESQHNLKRMSSGDSGSSVKQQSTRDGPFSKSFPNGNGHASGNSGEGLAEHGMNTGVLPPASTFPSYNSNFTGFLPSSFNPSPLMTLSRLAAGEPDNNGKVYYSYGPTQEQSILPLPENKHEGLPPYQNEYVPNGIRANQVVYPGQLVAVGNDSSKQLSESTTSNTDNNGVATANQSNPLGMKFHLPPILPVGESVCLPPRTSAKPRIAEGIASLLNPEEPPSNSDKQPSMSNGPKSEVSPSQSQQAPLIQSSTSPVSLQFPPEVQGSNVDKRNYALNVLSQLRSQHDLMIQELHNLNQHIQQIDEWLRSSDNENMASEHIKSSTPAVVASGALQT
In the case of B3, the binding (Mei4-VC (S. pombe)) is reported as “no binding”.
